Results deposited as PubChem BioAssay AID743454 (Peter MacCallum Cancer Centre, 2014)

Purpose: 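Knock-downs lowering viability or raising caspase 3/7 activity in vorinostat-treated resistant cells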 (primary screen)
Cells: human HCT116-VR colon cancer cells, selected for vorinostat resistance
Knock-down reagent: siRNA pool against human genes, 40 nM siRNA pool
Timing: vorinostat for 24 h, read-out about 72 h after transfection
Treatment: vorinostat at 2.5 µM final
Read-out: 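Cell viability by CellTiter-Fluor and caspase 3/7 activity by luminescence, each scaled to mock wells per plate, duplicates averaged, then robust z-scored over all plates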
Reading the numbers: viability robust z-score: higher = more viable cells than screen typical; caspase robust z-score: higher = more caspase 3/7 activity than screen typical
Hit rule: 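Hits are knock-downs in viability class RV1/RV2 or caspase class CA1/CA2, excluding ones that killed cells in the no-drug cell-count arm; hits then retested with single siRNAs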
In all, the deposit lists about 18,000 reagents; this is a random part of them. Of all reagents, 450 (2.5%) are marked active. 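Single biological run; no consistent viability z cut-off exists, so the class columns, not z-scores, define the calls.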 Entries without a mark were called inactive. The numbers tell different reagents against one gene apart.

target gene,pool no.,viability hit class,caspase hit class,viability robust z-score,caspase robust z-score
PPP2CB (protein phosphatase 2 catalytic subunit beta),1,no change,no change,-0.84,1.24
PCARE (photoreceptor cilium actin regulator),1,no change,no change,-0.66,2.52
RPA1 (replication protein A1),1,no change,no change,-2.77,3.65
PINK1 (PTEN induced kinase 1),1,no change,no change,-0.4,-0.46
ZGRF1 (zinc finger GRF-type containing 1),1,no change,no change,-0.81,1.36
ZGRF1 (zinc finger GRF-type containing 1),2,no change,no change,1.09,0.43
WHAMM,1,no change,no change,-0.8,3.76
ZNF93 (zinc finger protein 93),1,no change,no change,0.46,0.5
CYP2R1 (cytochrome P450 family 2 subfamily R member 1),1,no change,no change,0.81,0.11
MAP2K7 (mitogen-activated protein kinase kinase 7),1,no change,no change,-0.44,3.71
AAMDC (adipogenesis associated Mth938 domain containing),1,no change,no change,-1.98,-0.02
CYP2C19 (cytochrome P450 family 2 subfamily C member 19),1,no change,no change,-0.44,-0.28
S100A7P3 (S100 calcium binding protein A7 pseudogene 3),1,no change,no change,0,-0.06
ZKSCAN3 (zinc finger with KRAB and SCAN domains 3),1,no change,no change,-1.06,-1.13
ZNF329 (zinc finger protein 329),1,no change,no change,0.94,1.21
DDIT4L (DNA damage inducible transcript 4 like),1,no change,no change,-0.44,1.77
DHX36 (DEAH-box helicase 36),1,no change,no change,0.6,0.97
OGFOD1,1,no change,no change,-0.38,0.16
YJEFN3 (YjeF N-terminal domain containing 3),1,no change,no change,0.16,2.73
CEP15 (centrosomal protein 15),1,no change,no change,-0.97,0.5
SLC5A11,1,no change,no change,-0.28,0.78
IDI1 (isopentenyl-diphosphate delta isomerase 1),1,no change,no change,0.57,-0.92
DDX46 (DEAD-box helicase 46),1,no change,no change,-2.36,1.98
HSPG2 (heparan sulfate proteoglycan 2),1,no change,no change,0.57,-0.75
"TNNT3 (troponin T3, fast skeletal type)",1,no change,no change,-1.21,0.24
ADAMTS5 (ADAM metallopeptidase with thrombospondin type 1 motif 5),1,no change,no change,1.13,0.04
CST7 (cystatin F),1,no change,no change,-0.12,0.02
CRIPAK (retired record),1,no change,no change,-0.58,1.52
SMG8 (SMG8 nonsense mediated mRNA decay factor),1,no change,no change,-0.08,-0.36
WBP2 (WW domain binding protein 2),1,no change,no change,-0.21,0.93
GEMIN7 (gem nuclear organelle associated protein 7),1,no change,no change,-0.58,-0.93
MADCAM1 (mucosal vascular addressin cell adhesion molecule 1),1,no change,no change,-1.3,-0.03
SLC44A1,1,no change,no change,-0.01,1.48
PCDH19 (protocadherin 19),1,no change,no change,0.33,-0.66
R3HCC1L (R3H domain and coiled-coil containing 1 like),1,no change,no change,0.56,-0.59
PTCRA (pre T cell antigen receptor alpha),1,no change,no change,-1.56,2.38
"MUC15 (mucin 15, cell surface associated)",1,no change,no change,-1.01,4.57
"NBPF7P (NBPF member 7, pseudogene)",1,no change,no change,0.86,-0.2
ANTKMT (adenine nucleotide translocase lysine methyltransferase),1,no change,no change,-1.72,0.88
RP9 (RP9 pre-mRNA splicing factor),1,no change,no change,0.3,0.23
OR6C4 (olfactory receptor family 6 subfamily C member 4),1,no change,no change,0.04,-0.78
DYSF (dysferlin),1,no change,no change,3.86,1.36
"SETD2 (SET domain containing 2, histone lysine methyltransferase)",1,no change,no change,-0.95,-0.78
GARIN4 (golgi associated RAB2 interactor family member 4),1,no change,no change,-0.53,-0.68
DNAI7 (dynein axonemal intermediate chain 7),1,no change,no change,-1.9,3.56
LIN52 (lin-52 DREAM MuvB core complex component),1,no change,no change,0.44,1.38
TUBB6 (tubulin beta 6 class V),1,no change,no change,-0.02,1.44
FXR1 (FMR1 autosomal homolog 1),1,no change,no change,0.89,-0.62
DSCR4 (Down syndrome critical region 4),1,no change,no change,0.74,1.26
ANKDD1A (ankyrin repeat and death domain containing 1A),1,no change,no change,0.04,0.26
IL23A (interleukin 23 subunit alpha),1,no change,no change,0.97,0.18
MRPL3 (mitochondrial ribosomal protein L3),1,no change,no change,0.3,-0.16
MGAT3,1,no change,no change,1.06,-0.94
MYL11 (myosin light chain 11),1,no change,no change,-2.21,1.86
"SDR42E1 (short chain dehydrogenase/reductase family 42E, member 1)",1,no change,no change,0.73,-0.8
HILPDA (hypoxia inducible lipid droplet associated),1,no change,no change,0.3,1.24
WDR47 (WD repeat domain 47),1,no change,no change,-0.14,-0.18
ATP6V1F (ATPase H+ transporting V1 subunit F),1,no change,no change,0.12,0.12
AKT2 (AKT serine/threonine kinase 2),1,no change,no change,0.78,-0.37
SGPP1 (sphingosine-1-phosphate phosphatase 1),1,no change,no change,0.68,-0.11
GOT1 (glutamic-oxaloacetic transaminase 1),1,no change,no change,0.64,-0.8
SLC22A5,1,no change,no change,-0.2,-0.64
BORCS5 (BLOC-1 related complex subunit 5),1,no change,no change,-0.58,-0.26
"AARS2 (alanyl-tRNA synthetase 2, mitochondrial)",1,no change,no change,0.58,-0.7
MAGI3,1,no change,no change,0.27,1.96
ERO1A (endoplasmic reticulum oxidoreductase 1 alpha),1,no change,no change,-0.28,0.29
GPM6A (glycoprotein M6A),1,no change,no change,0.13,-0.45
SMARCA1 (SNF2 related chromatin remodeling ATPase 1),1,no change,no change,-0.05,0.02
OLIG2 (oligodendrocyte transcription factor 2),1,no change,no change,-1.43,1.01
SERP2,1,no change,no change,0.04,-1.46
NPFF (neuropeptide FF-amide peptide precursor),1,no change,no change,-0.96,0.76
OTOP1 (otopetrin 1),1,no change,no change,-0.23,-0.43
GBP2 (guanylate binding protein 2),1,no change,no change,0.59,-0.22

Copied from the list:
YJEFN3 (YjeF N-terminal domain containing 3), viability hit class = no change
Entry of MYL11 (myosin light chain 11) in “caspase robust z-score”: 1.86
S100A7P3 (S100 calcium binding protein A7 pseudogene 3), viability hit class = no change
Value of DSCR4 (Down syndrome critical region 4) in “caspase robust z-score”: 1.26
For “caspase hit class”, PPP2CB (protein phosphatase 2 catalytic subunit beta) shows no change
NPFF (neuropeptide FF-amide peptide precursor), viability hit class: no change
